In article PMC9482802:
These are yes or no findings as the source states them, for the method shown. In cells and extracts the contact can be indirect. Some entries that bind do so weakly or less than the wild type.

Sequences of proteins named here, by UniProt entry; tags and fusion partners are left off.
UniProt Q9NQB0: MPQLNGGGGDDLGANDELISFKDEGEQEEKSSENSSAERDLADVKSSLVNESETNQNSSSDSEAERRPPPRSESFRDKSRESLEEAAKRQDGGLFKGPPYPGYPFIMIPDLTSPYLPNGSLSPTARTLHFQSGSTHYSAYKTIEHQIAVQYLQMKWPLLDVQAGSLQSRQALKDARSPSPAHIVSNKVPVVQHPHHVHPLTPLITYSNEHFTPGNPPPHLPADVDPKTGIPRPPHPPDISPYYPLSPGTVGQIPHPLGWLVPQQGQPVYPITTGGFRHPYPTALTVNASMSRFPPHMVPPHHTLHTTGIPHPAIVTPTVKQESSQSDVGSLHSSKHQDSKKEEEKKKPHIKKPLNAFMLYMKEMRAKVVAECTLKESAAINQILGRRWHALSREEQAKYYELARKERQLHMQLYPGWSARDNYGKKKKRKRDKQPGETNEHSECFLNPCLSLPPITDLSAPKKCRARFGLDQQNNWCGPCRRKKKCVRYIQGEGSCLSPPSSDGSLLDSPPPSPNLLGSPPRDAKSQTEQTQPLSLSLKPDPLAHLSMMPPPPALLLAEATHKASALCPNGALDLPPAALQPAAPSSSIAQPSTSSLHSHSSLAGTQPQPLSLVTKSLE
UniProt Q04206: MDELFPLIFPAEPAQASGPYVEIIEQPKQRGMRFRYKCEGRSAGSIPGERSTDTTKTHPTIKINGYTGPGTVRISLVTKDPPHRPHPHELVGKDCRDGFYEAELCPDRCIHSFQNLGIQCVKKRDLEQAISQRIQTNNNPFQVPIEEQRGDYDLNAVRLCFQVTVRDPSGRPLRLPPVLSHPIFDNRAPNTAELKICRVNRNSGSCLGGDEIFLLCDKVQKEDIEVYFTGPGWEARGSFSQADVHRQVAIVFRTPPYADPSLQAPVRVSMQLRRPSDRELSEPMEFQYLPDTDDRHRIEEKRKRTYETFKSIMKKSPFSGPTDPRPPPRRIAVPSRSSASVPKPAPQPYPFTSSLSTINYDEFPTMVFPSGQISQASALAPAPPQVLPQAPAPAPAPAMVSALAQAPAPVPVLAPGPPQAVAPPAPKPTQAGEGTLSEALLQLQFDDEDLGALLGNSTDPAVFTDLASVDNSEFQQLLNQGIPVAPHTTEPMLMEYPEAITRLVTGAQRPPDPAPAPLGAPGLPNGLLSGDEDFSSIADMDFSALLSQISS

Target: HA-TCF4 (TCF7L2) (human) (UniProt Q9NQB0)
Test: co-IP; U87 cells expressing HA-TCF4N, HA-TCF4 or HA-TCF4∆N together with the p65 vector (Flag-p65); IP using HA antibody, IgG as a negative control, immunoblot

binding: binds weakly
Substance: Flag-p65 (RELA, p65 subunit of NF-κB) (from UniProt Q04206 1-551)
